Measured values from PubChem BioAssay (NCATS).
The other results are listed elsewhere or left out. The main result of the screen is listed elsewhere. These columns were measured beside it and carry no call. Compounds called inactive in the main read-out are mostly missing here. Potencies come from curve fits of mixed quality, noted in brackets.

Experiment: qHTS for identification of novel therapeutic agents for treatment of microphthalmiaassociated transcription factor (MiT) renal cell carcinoma (RCC) (AID 1963991)
Conditions: CellTiter-Glo, 48 h; for z-score: stronger effect = lower value
Outline: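 Three TFE3-fusion RCC lines (UOK109, UOK124, UOK145), 500 cells/well in complete medium, were treated with MIPE 4.0 compounds for 48 hours at 37 C. Viability was by CellTiter-Glo luminescence, normalized to DMSO (100%) and empty wells (0%); curves fitted over 11 concentrations.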

[1] = TFE3-RCC UOK109 viability, measured here: UOK109 Z-AUC
[2] = TFE3-RCC viability, measured here: UOK124 Z-AUC
[3] = TFE3-RCC viability, measured here: UOK124 cell viability
[4] = TFE3-RCC viability, measured here: UOK145 Z-AUC
[5] = TFE3-RCC viability, measured here: UOK145 cell viability

| SMILES | z-score [1] | z-score [2] | AC50 [3] | z-score [4] | AC50 [5] |
| --- | --- | --- | --- | --- | --- |
| Cc1cccc(-c2[nH]ncc2-c2ccc3ncccc3n2)n1 | 1.13 | 0.853 | 0.0372 µM [rising, full curve] | 0.694 |  |
| CCCCN(CCCC)CC(O)c1cc(Cl)cc2c1-c1ccc(Cl)cc1C2=Cc1ccc(Cl)cc1 (stereo not given) | 0.544 | 0.39 | 37.2 µM [falling, single point] | 0.63 |  |
| COc1ccc(-c2oc3c(CC=C(C)C)c(O)cc(O)c3c(=O)c2O)cc1 | -0.506 | 0.177 | 2.35 µM [falling, partial curve, poor fit] | 0.517 |  |
| CC(=CC(=O)Nc1ccccc1C(=O)O)c1ccc2ccccc2c1 | 0.101 | 0.564 |  | 0.327 | 18.7 µM [falling, partial curve] |
| CC(C)[N+]1(C)[C@@H]2CC[C@H]1CC(OC(=O)C(CO)c1ccccc1)C2 (stereo not given in full) | -0.217 | 0.224 |  | 0.378 | 18.7 µM [falling, partial curve, poor fit] |
| c1cc(-c2sc(-c3ccncc3)c(-c3ccncc3)c2-c2ccncc2)ccn1 | -0.0428 | 0.517 |  | 0.268 | 29.6 µM [falling, single point] |
| C[C@@H]1C(=O)O[C@H]2CC34[C@H]5C[C@@H](C(C)(C)C)C36[C@H](OC(=O)[C@@H]6O)O[C@@]4(C(=O)O5)[C@]21O (stereo not given in full) | -5.32 | 0.751 |  | -2.72 | 1.05 µM [rising, full curve, poor fit] |
| N#CC1(c2ccc(NC(=O)c3cccnc3NCc3ccncc3)cc2)CCCC1 | 0.0527 | 0.0743 | 29.6 µM [falling, single point] | 0.04 |  |
| Cc1cnn(C)c1C(=O)Nc1cc(Nc2ccc3c(C=Cc4ccccn4)n[nH]c3c2)ccc1F | -0.534 | -0.264 |  | -1.28 | 18.7 µM [falling, partial curve] |
| CC=CCC=CCCC(=O)[C@H]1O[C@@H]1C(N)=O | 0.716 | 0.641 | 29.6 µM [falling, single point] | 0.513 |  |
| CCC[C@@H]1C[C@@H](C(=O)N[C@@H]([C@H]2O[C@H](SC)[C@H](O)[C@@H](O)[C@H]2O)[C@@H](C)O)N(C)C1 | 1.75 | 0.259 | 0.0469 µM [rising, full curve, poor fit] | 0.938 |  |
| CC1(C)CCC[C@@]2(C)[C@@H]1CC[C@@]1(C)OC(=O)C[C@H]21 | 0.764 | 0.375 |  | 1.27 | 29.6 µM [falling, partial curve, poor fit] |
| CN(c1nccc(=O)[nH]1)C1CCN(c2nc3ccccc3n2Cc2ccc(F)cc2)CC1 | 0.251 | 0.44 |  | 0.343 | 18.7 µM [falling, partial curve, poor fit] |
| CCn1c(C(=O)N(C2CC2)C2CC2)cc2c3c(ncn3C)c(Nc3cc(C)n(C)n3)nc21 | -0.508 | 0.383 |  | 0.0172 | 26.4 µM [falling, partial curve, poor fit] |
| CN1CC(=O)NC1=NC(=O)Nc1cccc(Cl)c1 | 0.524 | 0.6 | 20.9 µM [falling, partial curve] | 0.421 |  |
| CC[C@]1(O)C[C@@H]2CN(CCc3c([nH]c4ccccc34)[C@@](C(=O)OC)(c3cc4c(cc3OC)N(C=O)[C@@H]3C45CCN4CC=C[C@](CC)([C@H]45)[C@@H](OC(C)=O)[C@]3(O)C(=O)OC)C2)C1 (stereo not given in full) | -0.0773 | 0.686 | 23.5 µM [falling, single point] | -0.876 |  |
| CC(C)C[C@H](CC(=O)O)C(=O)N[C@@H](Cc1c[nH]c2ccccc12)C(=O)N[C@@H](C)c1ccccc1 | -0.53 | 0.629 |  | -0.128 | 18.7 µM [falling, single point] |
| C[C@]12CC[C@@H]3c4ccc(O)cc4CC[C@H]3[C@H]1[C@@H](O)[C@@H](O)[C@H]2O | -0.349 | 0.408 |  | 0.219 | 16.6 µM [falling, partial curve] |
| c1cc(N[C@@H]2CCNC2)nc(-c2cnc3ccc(-c4cn[nH]c4)cn23)c1 | -0.901 | 0.423 |  | -0.336 | 37.2 µM [falling, single point] |
| N=C(N=C(N)N)N1CCOCC1 | 1.01 | 0.86 |  | 1.43 | 33.2 µM [falling, single point] |
| CCCCCCCc1ccc(CCc2cccc(O)c2C(=O)O)cc1 | 0.613 | -1.16 |  | 0.339 | 23.5 µM [falling, single point] |
| O=c1cc(O)c(Cl)c[nH]1 | -0.273 | 0.529 |  | 0.637 | 3.32 µM [falling, full curve] |
| CS(=O)(=O)c1ccc(C(=O)Nc2ccc(Cl)c(-c3ccccn3)c2)c(Cl)c1 | -0.371 | -0.0362 |  | -0.27 | 37.2 µM [falling, single point] |

| SMILES | z-score [1] | z-score [2] | AC50 [3] | z-score [4] | AC50 [5] |
| --- | --- | --- | --- | --- | --- |
| Fc1ccc(Cl)cc1-c1nc(Nc2ccncc2)c2nccnc2n1 | 0.65 | 0.273 | 3.32 µM [falling, partial curve, poor fit] | 0.208 |  |
| CCOC(=O)c1c(C)n(C)c2ccc(O)cc12 | 1.94 | 0.577 |  | 0.423 | 20.9 µM [falling, partial curve, poor fit] |
| CC(C)(C)C(=O)Oc1ccc2c(c1)nc(NC(=O)c1cccc([N+](=O)[O-])c1)n2CCCO | 1.03 | -0.929 | 16.6 µM [falling, partial curve, poor fit] | 0.206 |  |
| CC1(C)SCCN(S(=O)(=O)c2ccc(OCC#CCO)cc2)[C@@H]1C(=O)NO | -0.878 | 0.796 | 0.00526 µM [falling, full curve, poor fit] | 0.918 |  |
| CC(C)OC(=O)CCCC=CC[C@@H]1[C@H](C=C[C@@H](O)COc2cccc(C(F)(F)F)c2)[C@H](O)C[C@@H]1O | 0.804 | 0.209 | 13.2 µM [falling, partial curve] | 0.492 |  |
| CNNCc1ccc(C(=O)NC(C)C)cc1 | 1.05 | 2.68 | 0.209 µM [falling, partial curve, poor fit] | 1.2 |  |
| C[C@@H]1[C@H](C)CC[C@]2(C(=O)O)CC[C@]3(C)C(=CC[C@@H]4[C@@]5(C)CC[C@H](O)C(C)(C)[C@H]5CC[C@]43C)[C@@H]12 | -0.243 | 0.661 | 48.1 µM [falling, partial curve, poor fit] | -0.0699 |  |
| CNC(=O)[C@H](CC1=CN=C2C=CCC=C12)NC(=O)[C@@H](CC(=O)NO)CC(C)C | -1.79 | 1.12 |  | -0.249 | 4.18 µM [falling, partial curve, poor fit] |
| COC(=O)[C@H](c1ccccc1Cl)N1CCc2sccc2C1 | 0.448 | 0.253 | 13.2 µM [falling, partial curve] | 0.708 |  |
| N#Cc1ccc(NC(=O)Nc2ccccc2Br)c2n[nH]nc12 | -0.0561 | 0.714 |  | 0.234 | 33.2 µM [falling, single point] |
| O=C1CCCC(=O)C1C(=O)c1ccc(C(F)(F)F)cc1[N+](=O)[O-] | 0.771 | 0.281 |  | 0.605 | 26.4 µM [falling, partial curve, poor fit] |
| Cc1ccc(C(C)(O)c2nc3ccccc3s2)c(C)c1 (stereo not given) | -0.255 | 0.741 |  | -0.0676 | 20.9 µM [falling, partial curve, poor fit] |
| COc1cc(Nc2nc3ccccc3nc2NS(=O)(=O)c2ccc(NC(=O)c3ccc(C)c(OC)c3)cc2)cc(OC)c1 | 0.572 | 1.53 |  | 0.0848 | 20.9 µM [falling, partial curve] |
| C[C@@H](Cc1cc2c(c(C(N)=O)c1)N(CCCO)CC2)NCCOc1ccccc1OCC(F)(F)F | -0.308 | 0.6 |  | 2.8 | 0.00187 µM [rising, full curve, poor fit] |
| CCCn1c(=O)c2[nH]c(C34CC5CC3C[C@@H](C5)C4)nc2n(CCC)c1=O | 0.809 | 0.646 |  | 0.522 | 18.7 µM [falling, partial curve, poor fit] |
| CCC(=O)O[C@]1(C(=O)SCF)[C@H](C)C[C@H]2[C@@H]3C[C@H](F)C4=CC(=O)C=C[C@]4(C)[C@@]3(F)[C@@H](O)C[C@@]21C | 0.073 | 0.748 |  | -0.224 | 37.2 µM [falling, single point] |
| COc1cc(F)c(C(C)C)cc1-c1ccc(C(F)(F)F)cc1CN1C(=O)O[C@H](c2cc(C(F)(F)F)cc(C(F)(F)F)c2)[C@@H]1C | 0.538 | 0.481 |  | -0.0958 | 23.5 µM [falling, partial curve, poor fit] |
| NC(=O)c1cccc2[nH]c(-c3ccc([C@H]4CCCN4)cc3F)nc12 | -0.017 | 0.386 |  | 0.393 | 37.2 µM [falling, partial curve, poor fit] |
| COc1ccc(-c2c(-c3ccc(O)cc3O)n[nH]c2C)cc1 | 0.386 | -0.169 | 48.1 µM [falling, partial curve, poor fit] | 0.628 |  |
| CCOC1OC(=O)C[C@H]1NC(=O)[C@@H]1CCCN1C(=O)[C@@H](NC(=O)c1ccc(N)c(Cl)c1)C(C)(C)C (stereo not given in full) | 0.552 | 0.676 |  | 0.742 | 37.2 µM [falling, partial curve, poor fit] |
| CCn1cc(C(=O)O)c(=O)c2ccc(C)nc21 | 0.321 | 0.32 |  | 0.872 | 0.00833 µM [rising, full curve] |
| Clc1ccc2c(N3CCN(CCCN4CCN(c5ccnc6cc(Cl)ccc56)CC4)CC3)ccnc2c1 | 0.653 | 0.881 | 0.000645 µM [rising, full curve] | 0.759 |  |

A few values from above:
Cc1cnn(C)c1C(=O)Nc1cc(Nc2ccc3c(C=Cc4ccccn4)n[nH]c3c2)ccc1F – z-score [2]: -0.264
CC(C)OC(=O)CCCC=CC[C@@H]1[C@H](C=C[C@@H](O)COc2cccc(C(F)(F)F)c2)[C@H](O)C[C@@H]1O – z-score [4]: 0.492
COc1cc(F)c(C(C)C)cc1-c1ccc(C(F)(F)F)cc1CN1C(=O)O[C@H](c2cc(C(F)(F)F)cc(C(F)(F)F)c2)[C@@H]1C – AC50 [5]: 23.5 µM [falling, partial curve, poor fit]
CN(c1nccc(=O)[nH]1)C1CCN(c2nc3ccccc3n2Cc2ccc(F)cc2)CC1 – AC50 [5]: 18.7 µM [falling, partial curve, poor fit]
